Test results from paper PMC11062894, “Protein-based bandpass filters for controlling cellular signaling with chemical inputs” (Nature Chemical Biology, 2023).
Certain results were filed several times, with different values. The list is limited to them. There may be further records. For some assays here: The records of an entry appear to be repeats on other runs, samples or individuals. For some assays here: The values listed for one entry seem to repeat one measurement; one of them may be the mean.

Tested on: GEMS receptors with CBPA11 (BclXL–LD3 and BclXLhigh variants), STAT3-driven SEAP in HEK293T cells
Assay: GEMS SEAP reporter assay, CBPA11 (BclXLhigh, LD3-v and BclXL-v variants) with A-1155463
Conditions: representative data and independent repeats 1, 2 (triplicates)

CN(C)CC#Cc1ccc(OCCCc2sc(N3CCc4cccc(C(=O)Nc5nc6ccccc6s5)c4C3)nc2C(=O)O)c(F)c1 [A-1155463]
SEAP (U/L) (Figure 4c, A-1155463 1 nM): 11.808, 7.963, 8.217, 63.1842, 65.5998, 59.3672, 39.8592, 46.1014, 58.9505 U/L
SEAP (U/L) (Figure 4c, A-1155463 3.16 nM): 9.546, 10.8583, 12.6623, 97.0888, 90.7768, 104.54, 76.8281, 71.2211, 88.1111 U/L
SEAP (U/L) (Figure 4c, A-1155463 10 nM): 36.3624, 49.2548, 52.4537, 208.602, 193.911, 207.639, 185.512, 161.246, 182.675 U/L
SEAP (U/L) (Figure 4c, A-1155463 31.6 nM): 141.491, 160.654, 159.439, 344.989, 313.054, 303.564, 274.497, 276.861, 326.649 U/L
SEAP (U/L) (Figure 4c, A-1155463 100 nM): 249.571, 271.902, 289.151, 384.041, 407.382, 386.207, 383.122, 323.856, 380.578 U/L
SEAP (U/L) (Figure 4c, A-1155463 316 nM): 340.239, 334.632, 369.332, 436.35, 400.122, 424.545, 357.507, 363.639, 364.31 U/L
SEAP (U/L) (Figure 4c, A-1155463 1000 nM): 331.969, 319.567, 336.626, 325.401, 275.57, 309.58, 271.876, 243.941, 325.246 U/L
SEAP (U/L) (Figure 4c, A-1155463 3162 nM): 292.223, 279.844, 308.976, 222.337, 207.226, 209.948, 183.653, 165.849, 206.73 U/L
SEAP (U/L) (Figure 4c, A-1155463 10000 nM): 160.251, 171.032, 170.98, 59.8594, 64.0775, 78.9584, 67.4486, 63.1947, 66.8306 U/L
SEAP (U/L) (Figure 4e, A-1155463 1 nM): 15.8984 U/L and 17.1285 U/L
SEAP (U/L) (Figure 4e, A-1155463 3.16 nM): 20.2858 U/L, 18.8152 U/L, 21.9462 U/L
SEAP (U/L) (Figure 4e, A-1155463 10 nM): 60.5453 U/L, 59.4708 U/L, 50.2269 U/L
SEAP (U/L) (Figure 4e, A-1155463 10000 nM): 83.9348 U/L, 89.2399 U/L, 91.9583 U/L
SEAP (U/L) (Figure 4d, A-1155463 10 nM): 20.832, 27.2622, 23.1658, 47.5018, 29.428 U/L
SEAP (U/L) (Figure 4d, A-1155463 31.6 nM): 33.464, 42.2092, 42.8737, 76.3295, 63.3534, 66.044 U/L
SEAP (U/L) (Figure 4d, A-1155463 100 nM): 48.651 U/L, 63.7971 U/L, 59.6436 U/L
SEAP (U/L) (Figure 4d, A-1155463 316 nM): 48.2346, 52.2009, 43.4433, 118.052, 78.9581 U/L
SEAP (U/L) (Figure 4d, A-1155463 1000 nM): 25.921, 26.9233, 27.2207, 30.4572, 52.4796 U/L
SEAP (U/L) (Figure 4d, A-1155463 3162 nM): 13.3246, 14.7352, 12.3848, 17.4648, 36.8819 U/L
SEAP (U/L) (Figure 4d, A-1155463 10000 nM): 6.891, 7.321, 5.776, 11.7577, 18.7583 U/L
